# PubChem BioAssay AID445 (National Center for Advancing Translational Sciences (NCATS), 2006)
# This is one part of the list. These are further read-outs of the screen, such as a control signal, another cell line or another target. No call is given for them. Compounds called inactive in the main read-out are mostly missing here. Potencies come from curve fits of mixed quality, noted in brackets.
# Assay: IkB Signaling
# Conditions: ABC-DLBCL IkBa-CBG/CBR dual luciferase ratio (green luciferase fused to IkBa over red control in OCI-Ly3 lymphoma cells), 4 h
# In short: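 Curves were fitted separately to fusion (green), unfused (red) and ratio luminescence, then classed by r2, magnitude and activity. Cells: OCI-Ly3, 4 h compound plus doxycycline at 37C; 10 uM MG-132 defined full response.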
# [1] = measured here: control luc red channel unless noted
smiles,measurement,setting,value
Oc1c(C(c2cccs2)N2CCOCC2)sc2ncnn12 (stereo unspecified),AC50,[1],"0.501 µM [rising, full curve]"
COC(=O)c1ccc(NC(=O)CCc2c(C)nn(-c3ccc(N4CCCCC4)nn3)c2C)cc1,AC50,[1],"20 µM [falling, partial curve]"
COc1ccc(-n2nc(C(=O)Nc3cc(C)ccn3)c3c4ccccc4n(C)c3c2=O)cc1Cl,AC50,[1],"31.6 µM [rising, partial curve]"
O=c1c2oc3ccccc3c2n(Cc2cccc(F)c2)c(=O)n1Cc1ccc2c(c1)OCO2,AC50,[1],"6.31 µM [falling, partial curve]"
C=Cc1ccc(Cn2c(SCC(=O)N3CCN(c4ccc(F)cc4)CC3)nc3ccccc32)cc1,AC50,[1],"39.8 µM [falling, single point]"
CCCCNc1cc(C)nc(NCc2ccccc2)n1,AC50,[1],"25.1 µM [falling, partial curve]"
CCOC(=O)c1ccccc1NC(=O)N1CCCn2nc(C)cc21,AC50,[1],"39.8 µM [falling, single point]"
Cc1cc(C)cc(N2C(=O)CSC23C(=O)N(CC(=O)NC2CCCCC2)c2ccccc23)c1 (stereo unspecified),AC50,[1],"12.6 µM [falling, partial curve]"
CCOC(=O)c1cnn(-c2cccc(Cl)c2)c1N,AC50,[1],"3.98 µM [rising, partial curve]"
COc1ccc(C(=O)Nc2cccc(OCc3cc(=O)n4c5c(sc4n3)CCCC5)c2)cc1OC,AC50,[1],"2 µM [falling, full curve]"
COc1ccccc1NC(=O)CN1CCN(CC(=O)Nc2ccc(F)cc2)CC1,AC50,[1],"7.94 µM [falling, partial curve]"
CCOC(=O)c1c(C)[nH]c(C(=O)OCC(=O)N2c3ccccc3CC2C)c1C (stereo unspecified),AC50,[1],"15.8 µM [falling, partial curve]"
COc1ccc(CCNC(=O)CCc2c(C)nc3cc(-c4ccc(Cl)cc4)nn3c2C)c(OC)c1,AC50,[1],"0.501 µM [falling, full curve]"
O=C(CCc1ccccc1)N(Cc1cccnc1)c1nc2ccc(F)cc2s1,AC50,[1],"39.8 µM [falling, single point]"
O=C(CSc1nnnn1-c1ccccc1)CC(=O)Nc1ccc(Cl)cc1,AC50,[1],"0.0501 µM [falling, full curve]"
Cc1csc(NC(=O)CSc2nnc(-c3ccncc3)o2)n1,AC50,measured here: IkB-luc green channel,"1.26 µM [rising, partial curve]"
same,AC50,measured here: control luc red channel,"15.8 µM [falling, partial curve]"
Cc1nc2ccc3nc(NC(=O)C4COc5ccccc5O4)sc3c2s1 (stereo unspecified),AC50,[1],"3.16 µM [falling, full curve, poor fit]"
CCOC(=O)C1CCCN(C(=O)c2ccccc2NC(=O)c2nsc3ccccc23)C1 (stereo unspecified),AC50,[1],"10 µM [falling, partial curve, poor fit]"
Cn1c(CN2CCCCC2)nc2cc(NC(=O)c3cccs3)ccc21,AC50,[1],"39.8 µM [falling, single point]"
Cc1ccccc1Cn1nnc2c(=O)[nH]c(C3CCCN(C(=O)c4ccc(C(C)(C)C)cc4)C3)nc21 (stereo unspecified),AC50,[1],"25.1 µM [falling, single point]"
CCOc1ccc(N2CC(NC(=O)Cc3cccs3)CC2=O)cc1 (stereo unspecified),AC50,[1],"6.31 µM [falling, single point]"
Cc1ccc(C)c(CSc2cn(CC(=O)N3CCCC3)c3ccccc23)c1,AC50,[1],"12.6 µM [falling, partial curve]"
CCN(CC)C(=O)Cn1c(=O)n(-c2ccc(Cl)cc2)c(=O)c2c3c(sc21)CCCCC3,AC50,[1],"15.8 µM [falling, partial curve]"
COc1ccc(NS(=O)(=O)c2ccc3c(c2)CC(C)N3C(=O)C2CCC2)cc1OC (stereo unspecified),AC50,[1],"25.1 µM [falling, single point]"
Cc1ccc(NS(=O)(=O)c2ccc3nc(-c4ccccc4)[nH]c3c2)cc1Cl,AC50,[1],"10 µM [falling, partial curve]"
COc1ccc(Br)cc1CNC(=O)C1CCN(c2nnc(-n3cccc3CNc3ccc(C)cc3)s2)CC1,AC50,[1],"5.01 µM [falling, full curve]"
CSc1nn(CC(=O)Nc2ccc(C)cc2C)c(N)c1S(=O)(=O)c1ccc(Cl)cc1,AC50,[1],"20 µM [falling, partial curve]"
O=S(=O)(Nc1nc2n(n1)C(c1ccc(F)cc1)C=C(c1ccc(Cl)cc1)N2)c1ccccc1 (stereo unspecified),AC50,[1],"39.8 µM [falling, single point]"
COc1cc2c(C(=O)N3CCN(c4ccc(F)cc4)CC3)cn(CC(C)C)c(=O)c2cc1OC,AC50,[1],"3.16 µM [falling, full curve]"
CCOc1ccccc1NC(=O)C1CCCN(S(=O)(=O)c2cccs2)C1 (stereo unspecified),AC50,[1],"39.8 µM [falling, single point]"
O=c1c2c(nc3cc(-c4ccc(F)cc4)[nH]n13)CCCC2,AC50,[1],"20 µM [falling, single point]"
COc1ccc(N2CCN(C(=O)c3ccc4c(c3)CCN4S(=O)(=O)c3ccccc3)CC2)cc1,AC50,[1],"20 µM [falling, single point]"
Cc1c(C(=O)N(C)Cc2ccccc2)sc2nc(-c3ccc(F)cc3)cn12,AC50,[1],"15.8 µM [falling, partial curve]"
COc1cccc(-c2cc(C(=O)NCc3ccccc3)no2)c1,AC50,[1],"10 µM [falling, partial curve]"
CCOC(=O)CNC(=O)CSc1nnc(-c2ccco2)n1Cc1ccco1,AC50,[1],"5.01 µM [falling, full curve, poor fit]"
CC(NCc1ccc2c(c1)n(C)c(=O)n2C)c1ccccc1 (stereo unspecified),AC50,[1],"3.16 µM [rising, full curve]"
Cc1ccc(-c2cn3c(n2)sc2cc(C(=O)NC4CCCCCC4)ccc23)cc1,AC50,[1],"12.6 µM [falling, partial curve]"
COCCCNC(=O)C1CCN(Cc2cc3ccccc3n2Cc2cccc(Cl)c2)CC1,AC50,[1],"20 µM [falling, partial curve]"
Cc1cc(C)n2nc(CNC(=O)c3cccc(N(C)C)c3)nc2n1,AC50,[1],"2 µM [rising, full curve, poor fit]"
Cc1ccc(S(=O)(=O)Nc2ccc(Br)cc2/C=N/n2cnnc2)cc1,AC50,[1],"20 µM [falling, single point]"

# Part of the list above, tab-delimited:
smiles	measurement	setting	value
CCN(CC)C(=O)Cn1c(=O)n(-c2ccc(Cl)cc2)c(=O)c2c3c(sc21)CCCCC3	AC50	[1]	15.8 µM [falling, partial curve]
Cc1cc(C)n2nc(CNC(=O)c3cccc(N(C)C)c3)nc2n1	AC50	[1]	2 µM [rising, full curve, poor fit]
